# In the supplement of paper PMC6411743:
# Chains of the proteins cited; added tags and fusions are not shown. Lines headed by an entry give the natural chain unless they say otherwise; changes in a name come on top.
# UniProt P23458: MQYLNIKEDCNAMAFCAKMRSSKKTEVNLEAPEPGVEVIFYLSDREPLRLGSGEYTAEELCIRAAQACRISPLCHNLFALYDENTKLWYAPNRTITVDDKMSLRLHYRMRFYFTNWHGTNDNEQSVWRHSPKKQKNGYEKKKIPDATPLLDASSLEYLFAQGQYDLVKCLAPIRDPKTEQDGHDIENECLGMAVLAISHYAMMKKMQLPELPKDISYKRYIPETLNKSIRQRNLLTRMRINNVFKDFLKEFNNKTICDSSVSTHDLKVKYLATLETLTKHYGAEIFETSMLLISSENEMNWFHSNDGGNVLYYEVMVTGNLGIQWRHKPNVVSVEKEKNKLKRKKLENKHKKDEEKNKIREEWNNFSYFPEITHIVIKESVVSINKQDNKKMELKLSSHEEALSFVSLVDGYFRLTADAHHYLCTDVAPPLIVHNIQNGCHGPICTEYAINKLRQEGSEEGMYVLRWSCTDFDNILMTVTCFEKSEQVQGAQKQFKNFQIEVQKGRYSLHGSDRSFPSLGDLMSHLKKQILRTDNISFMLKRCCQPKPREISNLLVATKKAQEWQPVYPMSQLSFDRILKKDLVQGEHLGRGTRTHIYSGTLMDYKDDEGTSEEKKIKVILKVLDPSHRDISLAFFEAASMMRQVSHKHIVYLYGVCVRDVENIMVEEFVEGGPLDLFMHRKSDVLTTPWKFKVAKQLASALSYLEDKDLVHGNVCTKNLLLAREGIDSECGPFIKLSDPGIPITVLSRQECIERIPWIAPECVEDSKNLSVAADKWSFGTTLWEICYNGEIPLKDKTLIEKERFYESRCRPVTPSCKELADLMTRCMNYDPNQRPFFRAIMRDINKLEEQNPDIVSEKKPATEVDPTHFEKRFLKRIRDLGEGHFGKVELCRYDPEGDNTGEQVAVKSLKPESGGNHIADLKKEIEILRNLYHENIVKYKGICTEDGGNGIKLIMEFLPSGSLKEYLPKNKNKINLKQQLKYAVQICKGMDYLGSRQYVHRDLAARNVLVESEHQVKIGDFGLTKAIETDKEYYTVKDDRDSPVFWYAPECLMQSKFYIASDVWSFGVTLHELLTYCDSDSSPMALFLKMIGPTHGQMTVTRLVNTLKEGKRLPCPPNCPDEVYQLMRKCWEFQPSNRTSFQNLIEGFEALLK
# UniProt P20338: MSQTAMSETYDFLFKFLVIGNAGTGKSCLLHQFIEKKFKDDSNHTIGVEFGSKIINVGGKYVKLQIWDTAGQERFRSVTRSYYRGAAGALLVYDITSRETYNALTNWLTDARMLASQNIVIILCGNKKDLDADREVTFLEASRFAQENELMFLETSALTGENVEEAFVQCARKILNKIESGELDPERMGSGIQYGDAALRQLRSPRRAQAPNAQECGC
# UniProt P20023: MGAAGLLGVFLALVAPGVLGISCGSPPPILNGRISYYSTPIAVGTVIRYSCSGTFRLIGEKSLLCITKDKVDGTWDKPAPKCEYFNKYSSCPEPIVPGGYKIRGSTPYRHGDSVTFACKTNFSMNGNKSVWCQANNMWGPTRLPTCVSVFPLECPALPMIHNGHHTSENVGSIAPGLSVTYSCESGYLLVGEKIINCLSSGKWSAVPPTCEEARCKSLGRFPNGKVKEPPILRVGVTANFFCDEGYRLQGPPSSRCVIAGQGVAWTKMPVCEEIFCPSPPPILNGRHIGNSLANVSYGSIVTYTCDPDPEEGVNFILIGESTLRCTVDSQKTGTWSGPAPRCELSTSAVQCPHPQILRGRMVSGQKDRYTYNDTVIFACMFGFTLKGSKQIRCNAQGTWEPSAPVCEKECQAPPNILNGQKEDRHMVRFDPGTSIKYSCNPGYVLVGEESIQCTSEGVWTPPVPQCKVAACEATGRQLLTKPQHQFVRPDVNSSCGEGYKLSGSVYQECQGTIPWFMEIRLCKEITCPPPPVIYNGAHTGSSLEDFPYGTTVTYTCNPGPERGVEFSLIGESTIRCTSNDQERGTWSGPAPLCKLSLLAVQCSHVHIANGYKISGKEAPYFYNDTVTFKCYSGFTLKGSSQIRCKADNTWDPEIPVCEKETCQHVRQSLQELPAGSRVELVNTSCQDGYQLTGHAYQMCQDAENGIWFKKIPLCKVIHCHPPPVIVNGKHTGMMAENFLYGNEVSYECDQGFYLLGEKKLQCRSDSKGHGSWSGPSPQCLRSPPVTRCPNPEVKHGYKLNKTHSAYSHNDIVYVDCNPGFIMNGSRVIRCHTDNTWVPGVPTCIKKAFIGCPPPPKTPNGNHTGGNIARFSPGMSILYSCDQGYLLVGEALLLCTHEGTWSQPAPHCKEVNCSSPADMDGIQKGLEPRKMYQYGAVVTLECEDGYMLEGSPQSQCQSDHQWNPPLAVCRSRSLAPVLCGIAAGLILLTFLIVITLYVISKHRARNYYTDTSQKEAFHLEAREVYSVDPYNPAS
# UniProt P19623: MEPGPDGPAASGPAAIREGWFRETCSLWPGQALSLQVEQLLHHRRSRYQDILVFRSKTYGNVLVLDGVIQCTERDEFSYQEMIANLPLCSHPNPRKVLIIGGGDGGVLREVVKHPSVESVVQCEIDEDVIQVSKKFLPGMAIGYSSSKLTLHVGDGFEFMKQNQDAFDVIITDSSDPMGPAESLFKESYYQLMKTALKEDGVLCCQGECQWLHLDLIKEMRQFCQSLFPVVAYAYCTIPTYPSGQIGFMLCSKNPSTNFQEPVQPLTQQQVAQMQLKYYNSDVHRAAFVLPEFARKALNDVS
# UniProt P23919: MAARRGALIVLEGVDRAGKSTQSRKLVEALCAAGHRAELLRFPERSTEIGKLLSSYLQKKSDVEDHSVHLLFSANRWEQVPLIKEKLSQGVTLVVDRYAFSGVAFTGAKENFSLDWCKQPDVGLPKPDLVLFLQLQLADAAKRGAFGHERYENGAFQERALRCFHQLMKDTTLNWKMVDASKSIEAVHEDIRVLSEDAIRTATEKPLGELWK
# UniProt P23025: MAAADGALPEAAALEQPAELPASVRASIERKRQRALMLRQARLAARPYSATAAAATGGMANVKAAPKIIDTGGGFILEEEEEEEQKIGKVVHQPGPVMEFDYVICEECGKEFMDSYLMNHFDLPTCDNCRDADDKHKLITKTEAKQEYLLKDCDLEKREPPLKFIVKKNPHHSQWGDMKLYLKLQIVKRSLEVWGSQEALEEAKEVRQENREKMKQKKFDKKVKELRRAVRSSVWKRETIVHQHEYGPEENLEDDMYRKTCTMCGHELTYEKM
# UniProt P35251: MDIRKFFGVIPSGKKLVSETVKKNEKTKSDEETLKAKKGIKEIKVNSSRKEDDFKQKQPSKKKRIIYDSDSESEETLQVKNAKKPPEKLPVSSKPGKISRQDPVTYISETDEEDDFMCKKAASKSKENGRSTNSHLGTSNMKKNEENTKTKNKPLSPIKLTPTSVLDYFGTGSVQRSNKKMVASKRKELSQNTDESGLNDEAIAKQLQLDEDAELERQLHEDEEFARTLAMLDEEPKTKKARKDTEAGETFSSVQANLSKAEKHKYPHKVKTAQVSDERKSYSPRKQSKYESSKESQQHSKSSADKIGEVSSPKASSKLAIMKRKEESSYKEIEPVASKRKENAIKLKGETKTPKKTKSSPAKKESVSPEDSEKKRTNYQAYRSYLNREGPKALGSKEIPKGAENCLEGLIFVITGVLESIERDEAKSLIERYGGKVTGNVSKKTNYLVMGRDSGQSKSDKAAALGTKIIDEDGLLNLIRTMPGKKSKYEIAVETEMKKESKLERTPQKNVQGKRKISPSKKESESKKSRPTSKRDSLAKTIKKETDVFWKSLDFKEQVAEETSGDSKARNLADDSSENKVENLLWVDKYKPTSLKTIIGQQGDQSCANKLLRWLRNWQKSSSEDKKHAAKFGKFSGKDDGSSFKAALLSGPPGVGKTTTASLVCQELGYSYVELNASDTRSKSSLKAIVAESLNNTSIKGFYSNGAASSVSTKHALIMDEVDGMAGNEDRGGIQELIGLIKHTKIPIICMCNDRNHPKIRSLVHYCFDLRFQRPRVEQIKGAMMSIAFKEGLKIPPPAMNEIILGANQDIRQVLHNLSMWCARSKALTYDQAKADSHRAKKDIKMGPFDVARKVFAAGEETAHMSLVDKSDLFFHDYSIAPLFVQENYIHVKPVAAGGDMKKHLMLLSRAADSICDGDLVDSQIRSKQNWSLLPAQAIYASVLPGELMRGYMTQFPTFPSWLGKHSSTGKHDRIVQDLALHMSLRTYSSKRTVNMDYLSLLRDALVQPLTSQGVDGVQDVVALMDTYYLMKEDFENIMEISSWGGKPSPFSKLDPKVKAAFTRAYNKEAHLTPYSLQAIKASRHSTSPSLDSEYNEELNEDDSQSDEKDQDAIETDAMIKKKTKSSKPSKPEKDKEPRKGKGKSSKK
# UniProt P20933: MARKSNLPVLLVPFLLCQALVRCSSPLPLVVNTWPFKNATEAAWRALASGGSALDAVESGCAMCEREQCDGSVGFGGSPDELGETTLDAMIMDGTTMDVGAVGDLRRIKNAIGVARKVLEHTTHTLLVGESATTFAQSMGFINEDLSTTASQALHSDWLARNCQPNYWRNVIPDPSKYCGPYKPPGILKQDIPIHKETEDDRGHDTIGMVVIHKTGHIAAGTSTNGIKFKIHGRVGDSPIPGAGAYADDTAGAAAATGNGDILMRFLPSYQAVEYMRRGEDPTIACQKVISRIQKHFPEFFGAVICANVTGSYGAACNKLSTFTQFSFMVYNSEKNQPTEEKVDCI
# UniProt P21796, whole entry: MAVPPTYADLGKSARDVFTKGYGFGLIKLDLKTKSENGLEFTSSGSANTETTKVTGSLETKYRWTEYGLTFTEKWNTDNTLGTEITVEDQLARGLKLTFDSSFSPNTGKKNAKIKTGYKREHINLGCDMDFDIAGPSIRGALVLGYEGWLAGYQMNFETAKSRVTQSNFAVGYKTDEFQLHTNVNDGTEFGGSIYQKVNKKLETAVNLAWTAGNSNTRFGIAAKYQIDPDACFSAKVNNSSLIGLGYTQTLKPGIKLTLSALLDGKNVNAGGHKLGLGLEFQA
# UniProt P23246: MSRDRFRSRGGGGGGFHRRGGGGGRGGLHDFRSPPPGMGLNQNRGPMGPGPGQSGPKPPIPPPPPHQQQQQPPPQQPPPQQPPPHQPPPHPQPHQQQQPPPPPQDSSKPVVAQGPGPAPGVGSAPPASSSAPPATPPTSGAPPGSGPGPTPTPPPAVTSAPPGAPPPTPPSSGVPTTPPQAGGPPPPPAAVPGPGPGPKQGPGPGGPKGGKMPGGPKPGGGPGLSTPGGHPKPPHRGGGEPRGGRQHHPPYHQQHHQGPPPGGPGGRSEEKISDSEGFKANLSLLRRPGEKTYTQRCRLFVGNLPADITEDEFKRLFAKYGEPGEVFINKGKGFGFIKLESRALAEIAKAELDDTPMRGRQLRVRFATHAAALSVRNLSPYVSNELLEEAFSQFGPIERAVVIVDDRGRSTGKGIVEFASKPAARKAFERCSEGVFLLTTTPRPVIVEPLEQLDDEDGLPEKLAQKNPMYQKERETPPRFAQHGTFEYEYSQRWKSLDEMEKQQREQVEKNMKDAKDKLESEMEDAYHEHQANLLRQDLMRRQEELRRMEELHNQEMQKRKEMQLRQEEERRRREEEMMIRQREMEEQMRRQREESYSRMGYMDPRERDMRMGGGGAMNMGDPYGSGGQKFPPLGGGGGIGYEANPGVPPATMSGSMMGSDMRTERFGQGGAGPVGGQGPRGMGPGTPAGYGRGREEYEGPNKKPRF
# UniProt P20248, whole entry: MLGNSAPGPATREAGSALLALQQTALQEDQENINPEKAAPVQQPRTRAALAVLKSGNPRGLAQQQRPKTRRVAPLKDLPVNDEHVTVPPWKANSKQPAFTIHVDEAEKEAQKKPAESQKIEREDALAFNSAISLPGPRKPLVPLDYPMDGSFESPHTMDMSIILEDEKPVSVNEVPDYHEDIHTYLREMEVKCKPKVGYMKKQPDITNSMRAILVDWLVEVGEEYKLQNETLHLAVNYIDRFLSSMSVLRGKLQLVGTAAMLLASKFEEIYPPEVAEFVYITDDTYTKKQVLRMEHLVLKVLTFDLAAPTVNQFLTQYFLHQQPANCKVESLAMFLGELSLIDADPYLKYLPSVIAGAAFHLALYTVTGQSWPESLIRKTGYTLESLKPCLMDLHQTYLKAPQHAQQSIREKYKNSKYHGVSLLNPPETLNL
# UniProt P27707: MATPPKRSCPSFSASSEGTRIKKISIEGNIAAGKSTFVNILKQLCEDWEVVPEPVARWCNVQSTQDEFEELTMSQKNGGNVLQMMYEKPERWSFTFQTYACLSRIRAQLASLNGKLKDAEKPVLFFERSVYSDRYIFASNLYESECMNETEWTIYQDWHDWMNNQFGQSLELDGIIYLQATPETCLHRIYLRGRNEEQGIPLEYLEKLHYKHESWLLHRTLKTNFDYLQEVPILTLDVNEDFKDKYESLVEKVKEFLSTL
# ± gives the standard deviation of the averaged measurements. This is a selection; strong and weak results do not stand in their true shares. Most values lie at the level of the controls, where differences are scatter.
# Compound: Nc1ncnc2c1ncn2[C@@H]1O[C@H](COP(=O)(O)OP(=O)(O)OP(=O)(O)O)[C@@H](O)[C@H]1O [adenosine triphosphate]
# Assay: NP40-soluble protein abundance relative to vehicle (solubility fold change) (ratio); higher = more soluble protein in presence of ATP
# Outline: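 Jurkat crude lysate prepared with a Dounce homogeniser was treated at eight concentrations spanning 0.1 to 10 mM, 10 min at room temperature then 3 min at 37 °C. Solubilisation with 0.8% NP40 and benzonase and ultracentrifugation preceded TMT labelling of the supernatant for LC-MS/MS. Fold change against the detergent-processed vehicle was determined per replicate from vsn-normalised intensities, across three independent experiments.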
Target,NP40-soluble protein abundance (concentration: 0.1mM),NP40-soluble protein abundance (concentration: 0.5mM),NP40-soluble protein abundance (concentration: 1mM),NP40-soluble protein abundance (concentration: 2mM),NP40-soluble protein abundance (concentration: 4mM),NP40-soluble protein abundance (concentration: 6mM),NP40-soluble protein abundance (concentration: 8mM),NP40-soluble protein abundance (concentration: 10mM)
JAK1 (UniProt P23458),1.143 ± 0.01,1.18 ± 0.016,1.21 ± 0.015,1.21 ± 0.022,1.23 ± 0.032,1.16 ± 0.043,1.27 ± 0.047,1.26 ± 0.041
UniProt P25398,0.907 ± 0.066,0.892 ± 0.021,0.879 ± 0.058,0.861 ± 0.073,0.813 ± 0.071,0.817 ± 0.087,0.761 ± 0.043,0.779 ± 0.061
UniProt P29728-2|A0A087X0V5|P29728,1.13 ± 0.02,1.58 ± 0.04,1.73 ± 0.11,1.65 ± 0.019,1.7 ± 0.046,1.55 ± 0.12,1.74 ± 0.042,1.68 ± 0.047
RAB4A (UniProt P20338),1.03 ± 0.066,0.983 ± 0.11,–,–,–,–,–,–
UniProt P20023 and related entries,0.982 ± 0.073,0.956 ± 0.062,–,–,–,–,–,–
SRM (UniProt P19623),1.06 ± 0.11,1.05 ± 0.068,1.03 ± 0.12,1.01 ± 0.1,1 ± 0.083,0.929 ± 0.12,0.998 ± 0.071,0.997 ± 0.068
DTYMK (UniProt P23919),0.995 ± 0.049,0.992 ± 0.034,–,–,–,–,–,–
XPA (UniProt P23025),0.965 ± 0.018,1.03 ± 0.053,0.975 ± 0.021,0.979 ± 0.033,0.965 ± 0.054,1.02 ± 0.027,0.954 ± 0.1,0.968 ± 0.05
UniProt P35251 and related entries,1.059 ± 0.01,1.17 ± 0.058,1.23 ± 0.086,1.36 ± 0.093,1.45 ± 0.1,1.58 ± 0.11,1.51 ± 0.069,1.56 ± 0.084
AGA (UniProt P20933),0.911 ± 0.091,0.874 ± 0.075,0.925 ± 0.059,0.964 ± 0.07,0.978 ± 0.079,0.94 ± 0.081,0.914 ± 0.064,0.876 ± 0.071
VDAC1 (UniProt P21796),0.977 ± 0.043,1.01 ± 0.02,–,–,–,–,–,–
SFPQ (UniProt P23246),1.04 ± 0.02,1.08 ± 0.058,1.125 ± 0.0082,1.302 ± 0.0053,1.67 ± 0.042,1.72 ± 0.18,1.81 ± 0.11,1.68 ± 0.17
UniProt P19174-2|P19174,1.06 ± 0.07,1.01 ± 0.074,–,–,–,–,–,–
CCNA2 (UniProt P20248),0.992 ± 0.06,1.02 ± 0.028,0.998 ± 0.059,0.977 ± 0.027,0.993 ± 0.017,1.03 ± 0.046,0.9881 ± 0.0022,0.995 ± 0.05
DCK (UniProt P27707),0.99 ± 0.074,1.04 ± 0.053,0.955 ± 0.067,0.98 ± 0.052,0.914 ± 0.046,0.935 ± 0.093,0.933 ± 0.03,0.948 ± 0.044

# Look-ups from above:
# In NP40-soluble protein abundance (concentration: 1mM), UniProt P25398 reads 0.879 ± 0.058
# In NP40-soluble protein abundance (concentration: 6mM), JAK1 (UniProt P23458) reads 1.16 ± 0.043
